Laboratory results as given in PubChem BioAssay AID720533 (National Center for Advancing Translational Sciences (NCATS), 2013).
Values joined by “and” are separate entries in the source; they are usually repeats but may differ in a detail not shown here. Equal entries are not always repeated. Among all 18,000 compounds or so, about 750 (4.2%) were called active. This list was built around the results that the source calls inconclusive (neither active nor inactive); the mix of calls is not that of the screen. Calls come from the whole dose curve; tested in HEK293 cells. A potency beside an inconclusive call is a rough fit, not a confirmed value. Some compounds were tested as several samples or in several runs, with calls that do not always agree.

Assay: qHTS for Inhibitors of binding or entry into cells for Lassa Virus
Settings: Lassa virus pseudotyped entry inhibition, cell-based qHTS; activity change, negative = inhibition: at 49.2 µM (top of the series) unless noted
% is set by controls: 0 for no effect and ±100 for the full control effect; potency is the fitted concentration of half-maximal effect.

Compound	Potency	activity change, negative = inhibition
N[C@@H](Cn1oc(=O)[nH]c1=O)C(=O)O	inconclusive: 2.51 µM [inhibitor, full curve]	–
CCOC(=O)c1ccccc1O	inconclusive: 31.6 µM [inhibitor, partial curve, poor fit]	–
COCC(C)NCc1cc2ccc(OC)cc2nc1N1CCN(c2ccc(F)cc2)CC1 (stereo not given)	inconclusive: 20 µM [inhibitor, partial curve, poor fit]	–
CCc1cc(-c2cnnn2CCc2c[nH]c3ccccc23)ccc1-c1cn(CC(C)C)nn1	inconclusive: 7.91 µM [inhibitor, full curve]	–
COc1ccc(-c2ccccc2[C@H]2[C@@H]3C=CC[C@@H](C)[C@@H]3C(=O)N2Cc2ccccc2)cc1	inconclusive: 31.6 µM [inhibitor, single point]	–
COC(=O)Nc1nc2ccc(Oc3ccc(NC(=O)Nc4cccc(Cl)c4)cc3)cc2[nH]1	inconclusive: 6.28 µM [inhibitor, partial curve, poor fit]	–
O=C(Nc1ccc(Br)cc1)c1cc(Br)c(Br)s1	inconclusive: 35.5 µM [inhibitor, single point]	–
O=C(O)c1nc(=O)[nH]c(=O)[nH]1	inconclusive: 22.4 µM [inhibitor, partial curve]	–
C=C1/C(=C\C=C2/CCC[C@]3(C)[C@@H]([C@H](C)OCCC(C)(C)O)CC[C@@H]23)C[C@@H](O)C[C@@H]1O	inconclusive: 22.4 µM [inhibitor, partial curve]	–
CN1CCC(=C2c3ccccc3Sc3ccccc32)CC1	inconclusive: 22.4 µM [inhibitor, single point]	–
CC(C)c1c(C(=O)N2CCCCC2c2cccnc2)cnn1-c1nccc(-c2cccs2)n1 (stereo not given)	inconclusive: 20 µM [inhibitor, partial curve]	–
Nc1c2ccccc2nc2ccccc12	inconclusive: 39.8 µM [inhibitor, single point] and inconclusive: 28.2 µM [inhibitor, partial curve]	–
O=C1CCC[C@@H]2CC(NCc3ccc(Cl)c(Cl)c3)C[C@@H]3CCN1[C@H]23 (stereo not given in full)	inconclusive: 35.5 µM [inhibitor, single point]	–
C=C1C[C@]23C[C@@]1(O)CC[C@H]2[C@@]12C=C[C@H](O)C(C)(C(=O)O1)[C@H]2[C@@H]3CC(=O)O	inactive	–
COc1ccccc1-c1ccnc(-n2ncc(C(=O)NC(c3cccnc3)C(F)(F)F)c2C)n1 (stereo not given)	inconclusive: 20 µM [inhibitor, single point]	–
c1cc[n+]2c(c1)-c1cccc[n+]1CC2	inconclusive: 8.91 µM [inhibitor, partial curve]	–
CN(C)C(=O)c1ccc(-c2nc(NCc3ccccc3)c3ccccc3n2)cc1	inconclusive: 35.5 µM [inhibitor, single point]	–
CCN(CC)c1ccc(C(=C2C=CC(=[N+](CC)Cc3cccc(S(=O)(=O)[O-])c3)C=C2)c2ccc(N(CC)Cc3cccc(S(=O)(=O)O)c3)cc2)cc1	inconclusive: 14.1 µM [inhibitor, partial curve]	–
O=C(Cn1cc(COc2ccc(C(=O)c3ccccc3)cc2)nn1)c1ccc(O)cc1	–	inconclusive: 5.47% [inhibitor]
COc1ccccc1C(=O)N(Cc1cc2cccc(C)c2nc1N1CCC(O)CC1)C1CC1	inconclusive: 22.4 µM [inhibitor, partial curve, poor fit]	–

Compound	Potency	activity change, negative = inhibition
O=S1(=O)CCSCCN1Cc1ccc(Br)cc1	inactive	–
Cc1cnc(-n2ncc(C(=O)NCc3ccccn3)c2C2CC2)nc1-c1cccs1	inconclusive: 7.94 µM [inhibitor, full curve, poor fit]	–
CC[C@@]1(c2ccccc2)NC(=O)N(C)C1=O	inconclusive: 1 µM [inhibitor, full curve]	–
Cc1cnc(C)c(-c2cccc3c2OC(CNC(=O)C2(c4ccc(Cl)cc4)CC2)C3)n1 (stereo not given)	inconclusive: 22.4 µM [inhibitor, single point]	–
COc1oc(=O)c2cc(N)ccc2c1Cl	inconclusive: 20 µM [inhibitor, partial curve, poor fit]	–
COC(=O)[C@H](NC(=O)c1cc(-c2ccccc2)nc2ccccc12)c1ccccc1	inconclusive: 2.51 µM [inhibitor, full curve, poor fit]	–
COc1cccc(-c2cc(=O)c3cc(NC(=O)c4ccccc4)ccc3[nH]2)c1	inconclusive: 11.2 µM [inhibitor, partial curve]	–
C=CC(C)(C)c1[nH]c2ccccc2c1C1=C(O)C(=O)C(c2c[nH]c3c(CC=C(C)C)cccc23)=C(O)C1=O	active: 14.1 µM	–
N[C@H](Cc1c[nH]c2ccccc12)C(=O)O	inconclusive: 35.5 µM [inhibitor, single point]	–
COc1ccc(F)c(CN2CCC3(CCC(CNC(=O)c4cc(C)nn4C)O3)CC2)c1 (stereo not given)	inactive	–
C[C@@H]1CNCCN1S(=O)(=O)c1cccc2cnccc12	inactive	–
C[C@]12CC[C@@H]3c4ccc(OC(=O)c5ccccc5)cc4CC[C@H]3[C@@H]1CC[C@@H]2O	inconclusive: 28.2 µM [inhibitor, partial curve, poor fit]	–
CC(C)C1C(=O)N(Cc2cn(Cc3ccco3)nn2)CCS(=O)(=O)N1Cc1ccc(-c2ccc(Cl)c(Cl)c2)cc1 (stereo not given)	inconclusive: 28.1 µM [inhibitor, single point]	–
COc1cc(=O)n2c(c1C(=O)NCc1ccco1)CCN(Cc1cccc(C)n1)CC2	inactive	–
Cc1ccc(C(=O)Nc2cccc(-c3nc(CNC(=O)c4cccc(N(C)C)c4)c(C)o3)c2)s1	inconclusive: 35.5 µM [inhibitor, single point]	–
O=c1[nH]c2ccccc2n1CCCN1CCC(n2c(=O)[nH]c3cc(Cl)ccc32)CC1	inconclusive: 22.4 µM [inhibitor, single point]	–
CC(C)=CCCC(C)C1CC[C@@]2(C)C3=C(CC[C@@]12C)C1(C)CCC(O)C(C)(C)C1CC3 (stereo not given in full)	inconclusive: 0.158 µM [inhibitor, full curve, poor fit]	–
O=C(N/N=C\c1ccccc1O)c1ccccc1O	active: 7.94 µM	–
CC[C@@H](c1ccccc1)n1c(=O)n2n(c1=O)[C@H]1[C@H](O)[C@@H]3O[C@H]3C(=NOCc3ccccc3)[C@H]1CC2	–	inactive: 6.38% [at 8.59 µM]
COC(=O)C1=C(C)N(CC2CC2)C(=O)N[C@H]1c1ccc(Br)cc1	inconclusive: 15.8 µM [inhibitor, single point]	–

Another view of part of the listing above:

| Compound | Potency | activity change, negative = inhibition |
| --- | --- | --- |
| CC(C)C1C(=O)N(Cc2cn(Cc3ccco3)nn2)CCS(=O)(=O)N1Cc1ccc(-c2ccc(Cl)c(Cl)c2)cc1 (stereo not given) | inconclusive: 28.1 µM [inhibitor, single point] | – |
| COc1cc(=O)n2c(c1C(=O)NCc1ccco1)CCN(Cc1cccc(C)n1)CC2 | inactive | – |
| Cc1ccc(C(=O)Nc2cccc(-c3nc(CNC(=O)c4cccc(N(C)C)c4)c(C)o3)c2)s1 | inconclusive: 35.5 µM [inhibitor, single point] | – |
| O=c1[nH]c2ccccc2n1CCCN1CCC(n2c(=O)[nH]c3cc(Cl)ccc32)CC1 | inconclusive: 22.4 µM [inhibitor, single point] | – |

(further entries)

Compound	Potency	activity change, negative = inhibition
CN1C[C@H](CNC(=O)OCc2ccccc2)C[C@H]2c3cccc4c3c(cn4C)C[C@@H]21	inconclusive: 31.6 µM [inhibitor, partial curve, poor fit]	–
c1ccc(C2(N3CCCC3)CCCCC2)cc1	inconclusive: 28.2 µM [inhibitor, partial curve]	–
Cn1cnc([N+](=O)[O-])c1Sc1ncnc2nc[nH]c12	inconclusive: 15.8 µM [inhibitor, partial curve, poor fit] [middle of 4 runs]	–
CCCCC/C=C\C/C=C\C/C=C\C/C=C\CCCC(=O)NCc1ccc(O)c(OC)c1	active: 7.94 µM	–
CCN1C(=NCc2cccc(C(F)(F)F)c2)NC(c2cccs2)C(C(=O)OC)=C1C (stereo not given)	–	inactive: -6.96% [at 8.59 µM]
COC(=O)[C@@]1(OC)C[C@@H]2O[C@@]1(C)n1c3ccccc3c3c4c(c5c6ccccc6n2c5c31)C(=O)N(C)C4	inconclusive: 6.31 µM [inhibitor, single point]	–
CN(C)c1cccc(CN2CCN(c3ccccc3)CC2)c1	inactive	–
CC(N)C(O)c1cccc(O)c1 (stereo not given)	inactive	–
Nc1nc(Cl)nc2c1ncn2[C@@H]1O[C@H](CO)[C@@H](O)[C@H]1O	active: 31.6 µM	–
O=c1[nH]c2ccccc2n1CCCN1CCN(C(c2ccccc2)c2ccccc2)CC1	inconclusive: 14.1 µM [inhibitor, partial curve, poor fit]	–
CCC(Oc1ccc(Cl)cc1)C(=O)OC1CC2CCC(C1)N2C (stereo not given)	inconclusive: 28.2 µM [inhibitor, partial curve]	–
COc1cc(COc2cc(N)c(Cl)cc2C(=O)CCC2CCN(CCNS(C)(=O)=O)CC2)cc(OC)c1	inconclusive: 28.2 µM [inhibitor, partial curve] and inconclusive: 35.5 µM [inhibitor, partial curve, poor fit]	–
CC1=C[C@@H]2c3cccc4[nH]cc(c34)C[C@H]2N(C)C1	inactive	–
c1cc2c(cc1C1CCCCC1)c1c3n2CCN[C@H]3CCC1	inconclusive: 35.5 µM [inhibitor, single point]	–
C=C[C@](C)(O)CCC1C(=C)CCC2[C@@](C)(CO)CCC[C@@]12C (stereo not given in full)	inconclusive: 22.4 µM [inhibitor, single point]	–
N#C/C(=C\c1ccc(O)c(O)c1)C(=O)NCCCc1ccccc1	inconclusive: 31.6 µM [inhibitor, partial curve]	–
CC1(C)CC2C1CC[C@]1(C)CCC3C(C(=O)O)CC(=O)O[C@]32C1 (stereo not given in full)	inconclusive: 11.2 µM [inhibitor, partial curve]	–
CCOP(=S)(OCC)SCSc1ccc(Cl)cc1	inactive	–
O=C(O)c1cc(N(Cc2ccccc2O)Cc2cc(O)ccc2O)ccc1O	inconclusive: 22.4 µM [inhibitor, single point]	–
CC[C@H](O)C(C[C@H](C)N(C)C)(c1ccccc1)c1ccccc1	inconclusive: 44.7 µM [inhibitor, partial curve]	–
